Record: PubChem BioAssay AID1259405 (NCATS, 2018)
Assay: 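Mouse-designed siRNAs used to find CHO productivity engineering targets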 (primary screen). Cells: Chinese hamster CHO-K1 ovary cells with stable secreted eGFP expression. Reagents: single siRNA against mouse genes, 0.8 pmol siRNA per well (2 µl of 400 nM stock). Time to read-out: 3 days. Read-out: 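Percent of the per-plate non-targeting control median for intracellular GFP per well by laser scanning cytometry and for cell viability by ATP luminescence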. Scale: GFP, % of control: higher = more GFP per well, higher productivity; viability (ATP), % of control: higher = more viable cells (more ATP). Hit rule: 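a knock-down is called active if GFP reaches 120% or more of non-targeting control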.
The deposit covers about 50,000 reagents; this is a part drawn at random. In the full data, about 4,000 (8%) are marked active. 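Mouse siRNA library applied to hamster cells; one well for each siRNA.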

no.	Gene	PubChem SID	GFP, % of control	viability (ATP), % of control	Call
1	Snx3 (sorting nexin 3)	SID363554904	66.7	78	inactive
2	Snx3 (sorting nexin 3)	SID363568351	140	72	active
3	Snx3 (sorting nexin 3)	SID363586410	95.2	68.5	inactive
4	Or5af1 (olfactory receptor family 5 subfamily AF member 1)	SID363544404	61.1	48.6	inactive
5	Or5af1 (olfactory receptor family 5 subfamily AF member 1)	SID363550732	51.2	58.3	inactive
6	Or5af1 (olfactory receptor family 5 subfamily AF member 1)	SID363557281	83.8	65.5	inactive
7	Surf6 (surfeit gene 6)	SID363569073	121	96.5	active
8	Surf6 (surfeit gene 6)	SID363583505	59.1	78.3	inactive
9	Il17re (interleukin 17 receptor E)	SID363540198	94	96.1	inactive
10	Il17re (interleukin 17 receptor E)	SID363541950	50	43.2	inactive
11	Il17re (interleukin 17 receptor E)	SID363566866	103	87.1	inactive
12	Cyp2c55 (cytochrome P450, family 2, subfamily c, polypeptide 55)	SID363573006	94.7	104	inactive
13	Cyp2c55 (cytochrome P450, family 2, subfamily c, polypeptide 55)	SID363577582	82	69.7	inactive
14	Cyp2c55 (cytochrome P450, family 2, subfamily c, polypeptide 55)	SID363581102	109	52.9	inactive
15	Ccl27a (C-C motif chemokine ligand 27A)	SID363582348	120	121	active
16	Ccl27a (C-C motif chemokine ligand 27A)	SID363584108	89.3	66.9	inactive
17	Ppm1a (protein phosphatase 1A, magnesium dependent, alpha isoform)	SID363575198	79.5	66.2	inactive
18	Ppm1a (protein phosphatase 1A, magnesium dependent, alpha isoform)	SID363580830	53.8	44.2	inactive
19	Ppm1a (protein phosphatase 1A, magnesium dependent, alpha isoform)	SID363582942	92.3	82.8	inactive
20	Ebna1bp2 (EBNA1 binding protein 2)	SID363539626	88.7	95.1	inactive
21	Ebna1bp2 (EBNA1 binding protein 2)	SID363560927	100	98.3	inactive
22	Ebna1bp2 (EBNA1 binding protein 2)	SID363565017	123	68.1	active
23	Suv39h2 (suppressor of variegation 3-9 2)	SID363569119	64.5	46.3	inactive
24	Suv39h2 (suppressor of variegation 3-9 2)	SID363583551	94.5	82.5	inactive
25	Vamp8 (vesicle-associated membrane protein 8)	SID363553772	45.6	55.1	inactive
26	Vamp8 (vesicle-associated membrane protein 8)	SID363561729	82.6	80.9	inactive
27	Vamp8 (vesicle-associated membrane protein 8)	SID363565467	47	48.7	inactive
28	Ubtd2 (ubiquitin domain containing 2)	SID363542799	87.4	55.8	inactive
29	Ubtd2 (ubiquitin domain containing 2)	SID363546316	56.7	60.2	inactive
30	Ubtd2 (ubiquitin domain containing 2)	SID363548072	65.4	61.1	inactive
31	Gm11437 (predicted gene 11437)	SID363540160	38	70.6	inactive
32	Gm11437 (predicted gene 11437)	SID363561461	81.8	75.7	inactive
33	Gm11437 (predicted gene 11437)	SID363564497	45.3	56.1	inactive
34	Ndrg3 (N-myc downstream regulated gene 3)	SID363562178	40.1	42.1	inactive
35	Ndrg3 (N-myc downstream regulated gene 3)	SID363567316	105	55.2	inactive
36	Ndrg3 (N-myc downstream regulated gene 3)	SID363584673	131	82.3	active
